Test results reported in publication PMC7905918, “20E-mediated regulation of BmKr-h1 by BmKRP promotes oocyte maturation”.
Results from cells or extracts need not show a direct contact. A negative result means that nothing was seen under these conditions. At least one verdict was read from the data and is not stated in words by the source. Protein sequences can lack the tags named with them. The exact form of at least one protein or probe is not confirmed.

Target: T1, BmKRP (endogenous) (Bombyx mori (BmN cells)) (UniProt A0A8R1WHU4)
T1 sequence (looked up): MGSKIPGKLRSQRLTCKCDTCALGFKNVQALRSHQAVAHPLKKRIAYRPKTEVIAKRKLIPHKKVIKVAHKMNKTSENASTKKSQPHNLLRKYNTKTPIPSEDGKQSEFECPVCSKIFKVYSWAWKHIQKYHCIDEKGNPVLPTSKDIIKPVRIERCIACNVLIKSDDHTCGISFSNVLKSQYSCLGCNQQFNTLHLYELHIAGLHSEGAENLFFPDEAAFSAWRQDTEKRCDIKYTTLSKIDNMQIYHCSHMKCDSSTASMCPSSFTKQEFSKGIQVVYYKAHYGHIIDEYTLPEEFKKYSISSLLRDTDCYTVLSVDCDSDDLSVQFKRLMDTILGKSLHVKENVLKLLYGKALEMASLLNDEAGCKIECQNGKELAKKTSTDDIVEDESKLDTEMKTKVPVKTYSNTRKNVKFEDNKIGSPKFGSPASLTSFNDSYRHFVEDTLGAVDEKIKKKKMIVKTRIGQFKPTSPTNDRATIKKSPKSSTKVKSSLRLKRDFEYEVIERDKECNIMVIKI
Test: pull-down
Details: pull-down: 10 mM HEPES pH 7.6, 100 mM K-glutamate, 80 mM KCl, 10 mM Mg acetate, 4 C, protein in an extract, residues 1-518, label: biotin

Sequence	binding result (band absent with mutant probe)	binding result (LC-MS/MS identification)
GGCGGCCCACATCCGAAAACGACCGCCGACGG (double strand) [pull-down mutant CRE probe]	no binding	–
TTATTAAAACATCCGAAAACGCAATAATCATT (double strand) [pull-down WT CRE probe]	–	binds
